In PMC12715529 (ACS Bio & Med Chem Au, 2025):

How the values were obtained:
Type in all cases: cell-based
PC-3 cells [1] = assay: Colocalisation with Lysotracker Blue DND-22, scatterplot analysis; details: PC-3, 18 h, 37 °C, 100 µM + 100 nM Lysotracker Blue DND-22
PC-3 cells [2] = assay: Two-photon fluorescence lifetime imaging (MP FLIM) of living PC-3 cells; details: PC-3, 60 min, 100 µM in 1:99 DMSO:serum-free medium, λex 810 nm
PC-3 cells [3] = assay: Confocal laser-scanning microscopy, cellular uptake and localization; details: organelle-specific staining / confocal fluorescence
A431 cells = assay: Two-photon fluorescence lifetime imaging (MP FLIM) of living A431 cells; details: A431, overnight 37 °C, 100 μM in 1:99 DMSO/serum-free medium, λex 810 nm
[4] = Blue ROI, overlay a (blue Lysotracker channel vs green)
[5] = Blue ROI, overlay b (blue Lysotracker channel vs red; red λex 488 nm, L-6 561 nm)
[6] = Blue ROI, overlay c (green vs red channel)
[7] = Green ROI, overlay a (blue Lysotracker channel vs green)
[8] = Green ROI, overlay b (blue Lysotracker channel vs red; red λex 488 nm, L-6 561 nm)
[9] = Green ROI, overlay c (green vs red channel)
[10] = Red ROI, overlay a (blue Lysotracker channel vs green)
[11] = Red ROI, overlay b (blue Lysotracker channel vs red; red λex 488 nm, L-6 561 nm)
[12] = Red ROI, overlay c (green vs red channel)

CC(C)C[C@H](NC(=O)[C@H](Cc1c[nH]cn1)NC(=O)CNC(=O)[C@@H](NC(=O)[C@H](C)NC(=O)[C@H](Cc1c[nH]c2ccccc12)NC(=O)[C@H](CCC(N)=O)NC(=O)[C@H](Cc1ccc(I)cc1)N1C(=O)c2ccc3c4c(ccc(c24)C1=O)C(=O)N([C@@H](Cc1ccc(I)cc1)C(=O)N[C@@H](CCC(N)=O)C(=O)N[C@@H](Cc1c[nH]c2ccccc12)C(=O)N[C@@H](C)C(=O)N[C@H](C(=O)NCC(=O)N[C@@H](Cc1c[nH]cn1)C(=O)N[C@@H](CC(C)C)C(N)=O)C(C)C)C3=O)C(C)C)C(N)=O [L-4]
Correlation coeff. c1 (PC-3 cells [1]; [4]): 0.94 | Correlation coeff. c2 (PC-3 cells [1]; [4]): 0.98 | Mander’s overlap (PC-3 cells [1]; [4]): 0.84 | Mander’s overlap coeff. k1 (PC-3 cells [1]; [4]): 0.80 | Mander’s overlap coeff. k2 (PC-3 cells [1]; [4]): 0.87 | Pearson’s correlation (PC-3 cells [1]; [4]): 0.83 | Correlation coeff. c1 (PC-3 cells [1]; [5]): 0.80 | Correlation coeff. c2 (PC-3 cells [1]; [5]): 1.00 | Mander’s overlap (PC-3 cells [1]; [5]): 0.38 | Mander’s overlap coeff. k1 (PC-3 cells [1]; [5]): 0.15 | Mander’s overlap coeff. k2 (PC-3 cells [1]; [5]): 0.95 | Pearson’s correlation (PC-3 cells [1]; [5]): 0.60 | Correlation coeff. c1 (PC-3 cells [1]; [6]): 0.93 | Correlation coeff. c2 (PC-3 cells [1]; [6]): 1.00 | Mander’s overlap (PC-3 cells [1]; [6]): 0.51 | Mander’s overlap coeff. k1 (PC-3 cells [1]; [6]): 0.21 | Mander’s overlap coeff. k2 (PC-3 cells [1]; [6]): 1.22 | Pearson’s correlation (PC-3 cells [1]; [6]): 0.70 | Correlation coeff. c1 (PC-3 cells [1]; [7]): 0.85 | Correlation coeff. c2 (PC-3 cells [1]; [7]): 0.99 | Mander’s overlap (PC-3 cells [1]; [7]): 0.68 | Mander’s overlap coeff. k1 (PC-3 cells [1]; [7]): 0.61 | Mander’s overlap coeff. k2 (PC-3 cells [1]; [7]): 0.75 | Pearson’s correlation (PC-3 cells [1]; [7]): 0.70 | Correlation coeff. c1 (PC-3 cells [1]; [8]): 0.77 | Correlation coeff. c2 (PC-3 cells [1]; [8]): 1.00 | Mander’s overlap (PC-3 cells [1]; [8]): 0.29 | Mander’s overlap coeff. k1 (PC-3 cells [1]; [8]): 0.05 | Mander’s overlap coeff. k2 (PC-3 cells [1]; [8]): 1.54 | Pearson’s correlation (PC-3 cells [1]; [8]): 0.31 | Correlation coeff. c1 (PC-3 cells [1]; [9]): 0.98 | Correlation coeff. c2 (PC-3 cells [1]; [9]): 1.00 | Mander’s overlap (PC-3 cells [1]; [9]): 0.73 | Mander’s overlap coeff. k1 (PC-3 cells [1]; [9]): 0.15 | Mander’s overlap coeff. k2 (PC-3 cells [1]; [9]): 3.50 | Pearson’s correlation (PC-3 cells [1]; [9]): 0.73 | Correlation coeff. c1 (PC-3 cells [1]; [10]): 0.98 | Correlation coeff. c2 (PC-3 cells [1]; [10]): 1.00 | Mander’s overlap (PC-3 cells [1]; [10]): 0.74 | Mander’s overlap coeff. k1 (PC-3 cells [1]; [10]): 0.44 | Mander’s overlap coeff. k2 (PC-3 cells [1]; [10]): 1.25 | Pearson’s correlation (PC-3 cells [1]; [10]): 0.70 | Correlation coeff. c1 (PC-3 cells [1]; [11]): 0.86 | Correlation coeff. c2 (PC-3 cells [1]; [11]): 1.00 | Mander’s overlap (PC-3 cells [1]; [11]): 0.45 | Mander’s overlap coeff. k1 (PC-3 cells [1]; [11]): 0.34 | Mander’s overlap coeff. k2 (PC-3 cells [1]; [11]): 0.60 | Pearson’s correlation (PC-3 cells [1]; [11]): 0.40 | Correlation coeff. c1 (PC-3 cells [1]; [12]): 0.96 | Correlation coeff. c2 (PC-3 cells [1]; [12]): 1.00 | Mander’s overlap (PC-3 cells [1]; [12]): 0.62 | Mander’s overlap coeff. k1 (PC-3 cells [1]; [12]): 0.79 | Mander’s overlap coeff. k2 (PC-3 cells [1]; [12]): 0.48 | Pearson’s correlation (PC-3 cells [1]; [12]): 0.72 | FLIM τ1 (PC-3 cells [2]): 2.66±0.04 ns | FLIM τ2 (PC-3 cells [2]): 0.00±0.00 ns | subcellular localization (PC-3 cells [3]): localize more in the lysosomes of PC-3 cells than in the nucleus or cytosol | FLIM first lifetime distribution (τ1) (A431 cells): 0.72 ± 0.05 ns | FLIM second lifetime distribution (τ2) (A431 cells): 1.89 ± 0.11 ns
